Values quoted from earlier work in patent US11903918B2, “Fumarate ester dosage forms with enhanced gastrointestinal tolerability” (BANNER LIFE SCIENCES LLC, priority 2020, dated 2024).
Where a name gives a salt, the structure may show the parent alone. At least one compound was matched to its structure with a doubt left.

System: nuclear factor erythroid-derived 2-like (Nrf2) pathway
Conditions: in vitro and in vivo in humans

COC(=O)/C=C/C(=O)O [monomethyl fumarate]
activation of the Nrf2 pathway: activate
